The test system of this data set is IgE (Homo sapiens). Briefly: filter binding. The following applies: other modifications as ARC1335, No binding, DPBS with Ca/Mg, BSA, RT, label: 5'-32P, letters built from the parent sequence and the stated change, variant of ARC1335.

Chains of the proteins cited; added tags and fusions are not shown. Chains listed by the source or under a name are the forms on record and can include a tag or linker.
IgE (Homo sapiens), one chain, as listed by the source: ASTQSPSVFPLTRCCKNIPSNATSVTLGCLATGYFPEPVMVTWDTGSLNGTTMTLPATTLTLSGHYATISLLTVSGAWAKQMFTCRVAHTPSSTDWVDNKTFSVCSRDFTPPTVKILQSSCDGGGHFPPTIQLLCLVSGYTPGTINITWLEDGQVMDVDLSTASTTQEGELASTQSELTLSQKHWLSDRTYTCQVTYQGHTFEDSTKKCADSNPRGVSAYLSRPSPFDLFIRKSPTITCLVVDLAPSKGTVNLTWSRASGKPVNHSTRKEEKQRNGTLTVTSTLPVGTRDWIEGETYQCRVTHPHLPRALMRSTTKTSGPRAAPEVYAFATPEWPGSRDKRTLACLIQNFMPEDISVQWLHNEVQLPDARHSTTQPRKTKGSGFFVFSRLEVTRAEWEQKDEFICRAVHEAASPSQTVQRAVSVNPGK

The exact form of at least one protein or probe is not confirmed. Negatives hold for the conditions tested.

Turning to AGCCUGGGGACCCAUGGGGGGCU [ARC1552], where the note is “as ARC1335 with dI at 6, 3'-idT [dI at 6 (parent base G)”, the binding result is “no binding”.
On to AGCCUGGGGACCCAUGGGGGGCU [ARC1553], for which the binding result (as ARC1335 with dI at 7, 3'-idT [dI at 7 (parent base G)) is on record as “no binding”.
Consider AGCCUGGGGACCCAUGGGGGGCU [ARC1554], for which the binding result (as ARC1335 with dI at 8, 3'-idT [dI at 8 (parent base G)) is “no binding”.
For AGCCUGGGGACCCAUGGGGGGCU [ARC1555], the binding result (as ARC1335 with dI at 9, 3'-idT [dI at 9 (parent base G)) was “no binding”.
